Results deposited as PubChem BioAssay AID504791 (Drosophila RNAi Screening Center, 2011)
Purpose: 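Factors in Argonaute-based small RNA production and activity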 (primary screen). Cells: Drosophila S2-derived reporter cells. Knock-down reagent: long dsRNA against Drosophila genes, about 150-250 ng dsRNA per well (siRNA assay); about 80-120 ng (miRNA assay). Time to read-out: about 5 days (siRNA assay); about 4 days (miRNA assay). Challenge: copper sulfate induction of reporters: 25 µM (siRNA assay); 200 mM stated (miRNA assay), 1-2 days before reading. Detection: 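Per-well ratio of Renilla over firefly light, expressed relative to that plate's average ratio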. Units: stable assay Renilla, run 1 in luminescence; stable assay firefly, run 1 in luminescence. Hit rule: 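First-pass picks had plate-scaled ratios over 1.5 for the siRNA assay, over 1.6 for the miRNA assay, or under 0.6; two distinct dsRNAs had to score alike on retest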.
The deposit covers about 23,000 reagents; below is a random part of those that have a named target and a result. Over the whole deposit, 199 (0.86%) got an active call. 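Plate-scaled ratios behind the calls are not deposited; printed light signals are raw; many rows marked increased or decreased are still called inactive.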 A number with no mark means an inactive call. Names joined by + are all predicted targets of the reagent. Not given: the direction of the score.

How did the screen score CG30060 (GeneID 246426) [DRSC05419]?
stable assay Renilla, run 1: 6155; stable assay firefly, run 1: 3.81e5

Which result is listed for Cyp6a14 (retired record) (GeneID 8674017) [DRSC07376]?
stable assay Renilla, run 1: 6150; stable assay firefly, run 1: 3.25e5

With Nrx-IV (GeneID 39387) [DRSC11238], how do the results read?
stable assay Renilla, run 1: 8913; stable assay firefly, run 1: 4.55e5

How did the screen score rngo (GeneID 32616) [DRSC19903]?
stable assay Renilla, run 1: 5231; stable assay firefly, run 1: 4.07e5

What did the screen give for Naus (GeneID 37076) [DRSC06011]?
miRNA reporter change: reporter ratio lowered past the hit cutoff; stable assay Renilla, run 1: 7754; stable assay firefly, run 1: 4.26e5

For Naus (GeneID 37076) [DRSC06469], how do the results read?
miRNA reporter change: reporter ratio lowered past the hit cutoff; stable assay Renilla, run 1: 5035; stable assay firefly, run 1: 2.99e5

With Naus (GeneID 37076) [DRSC23606], what was measured?
miRNA reporter change: reporter ratio lowered past the hit cutoff (active)

What is on record for cdm (GeneID 42171) [DRSC16213]?
stable assay Renilla, run 1: 6734; stable assay firefly, run 1: 3.75e5

For DCAF12 (GeneID 41460) [DRSC15475], what does the deposit list?
stable assay Renilla, run 1: 8326; stable assay firefly, run 1: 4.18e5

How did the screen score Pym (GeneID 37780) [DRSC22492]?
stable assay Renilla, run 1: 2171; stable assay firefly, run 1: 2.31e5

With Pym (GeneID 37780) [DRSC23017], what does the deposit list?
stable assay Renilla, run 1: 4223; stable assay firefly, run 1: 3.40e5

With Dna2 (GeneID 31934) [DRSC18254], how do the results read?
stable assay Renilla, run 1: 6671; stable assay firefly, run 1: 3.66e5

With CG9471 (GeneID 41197) [DRSC16499], how do the results read?
stable assay Renilla, run 1: 6122; stable assay firefly, run 1: 3.14e5

Quoted from the entries so far (2 entries):
rngo (GeneID 32616) [DRSC19903] — stable assay Renilla, run 1 = 5231; stable assay firefly, run 1 = 4.07e5
Naus (GeneID 37076) [DRSC06011] — miRNA reporter change = reporter ratio lowered past the hit cutoff; stable assay Renilla, run 1 = 7754; stable assay firefly, run 1 = 4.26e5

Further entries:
What did the screen give for Pld (GeneID 35554) [DRSC04854]?
stable assay Renilla, run 1: 1.15e5; stable assay firefly, run 1: 7.17e5

With CG33463 (GeneID 2768844) [DRSC22915], how do the results read?
stable assay Renilla, run 1: 2160; stable assay firefly, run 1: 2.72e5

How did the screen score BomT3 (GeneID 42598) [DRSC13537]?
stable assay Renilla, run 1: 5064; stable assay firefly, run 1: 4.31e5

With BomT3 (GeneID 42598) [DRSC15871], what was measured?
stable assay Renilla, run 1: 6714; stable assay firefly, run 1: 3.33e5

What is on record for TAF1B (GeneID 41242) [DRSC16001]?
stable assay Renilla, run 1: 7443; stable assay firefly, run 1: 3.61e5

For CG13455 (GeneID 39667) [DRSC10002], what was measured?
stable assay Renilla, run 1: 6820; stable assay firefly, run 1: 3.41e5

For fon (GeneID 35211) [DRSC02507], what was measured?
stable assay Renilla, run 1: 73488; stable assay firefly, run 1: 1.16e6

What did the screen give for caps (GeneID 39493) [DRSC11333]?
stable assay Renilla, run 1: 5667; stable assay firefly, run 1: 3.62e5

What did the screen give for caps (GeneID 39493) [DRSC22224]?
stable assay Renilla, run 1: 9923; stable assay firefly, run 1: 6.87e5

What is on record for CG3706 (GeneID 53540) [DRSC18649]?
stable assay Renilla, run 1: 8310; stable assay firefly, run 1: 6.48e5

Which result is listed for CG7601 (GeneID 43502) [DRSC14131]?
stable assay Renilla, run 1: 8505; stable assay firefly, run 1: 6.34e5

What is on record for ninaD (GeneID 326160) [DRSC02886]?
stable assay Renilla, run 1: 7662; stable assay firefly, run 1: 4.62e5

With MED27 (GeneID 40696) [DRSC12205], what does the deposit list?
stable assay Renilla, run 1: 6272; stable assay firefly, run 1: 4.55e5

With nocte (GeneID 31976) [DRSC18123], what was measured?
stable assay Renilla, run 1: 7135; stable assay firefly, run 1: 3.55e5

How did the screen score Srg2 + CG42826 [DRSC10681]?
stable assay Renilla, run 1: 8221; stable assay firefly, run 1: 5.41e5

For Srg2 + CG42826 [DRSC10682], how do the results read?
stable assay Renilla, run 1: 6042; stable assay firefly, run 1: 3.65e5
